Assay results: article PMC5154475, “Dual Therapeutic Action of a Neutralizing Anti-FGF2 Aptamer in Bone Disease and Bone Cancer Pain” (Molecular Therapy, 2016)

By UniProt entry, the sequences of proteins in these tests, tags left out. Residues count along the entry.
UniProt P22607, residues 23-375: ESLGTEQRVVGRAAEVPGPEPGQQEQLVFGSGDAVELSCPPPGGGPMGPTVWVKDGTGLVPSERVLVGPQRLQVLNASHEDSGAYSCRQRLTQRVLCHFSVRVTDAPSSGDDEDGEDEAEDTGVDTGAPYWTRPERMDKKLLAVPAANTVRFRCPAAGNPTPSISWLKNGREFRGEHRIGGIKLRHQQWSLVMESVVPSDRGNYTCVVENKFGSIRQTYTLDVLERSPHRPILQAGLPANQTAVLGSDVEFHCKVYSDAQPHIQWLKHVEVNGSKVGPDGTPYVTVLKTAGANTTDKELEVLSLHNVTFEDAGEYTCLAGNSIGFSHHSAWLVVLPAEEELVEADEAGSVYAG

Columns and labels:
human FGFR4-Fc (human) = biological target: T1, human FGFR4-Fc (human) (UniProt P22455); assay: SPR; Biacore 2000; FGFR/Fc fusion proteins immobilised onto a CM5 sensor chip via prebound protein A (1,000 RUs); FGF2 injected with or without the RNA aptamer APT-F2; for FGFR1: receptor 100 nmol/l, FGF2 100 nmol/l, heparin 100 nmol/l, APT-F2 150 nmol/l; both purified
T1 sequence: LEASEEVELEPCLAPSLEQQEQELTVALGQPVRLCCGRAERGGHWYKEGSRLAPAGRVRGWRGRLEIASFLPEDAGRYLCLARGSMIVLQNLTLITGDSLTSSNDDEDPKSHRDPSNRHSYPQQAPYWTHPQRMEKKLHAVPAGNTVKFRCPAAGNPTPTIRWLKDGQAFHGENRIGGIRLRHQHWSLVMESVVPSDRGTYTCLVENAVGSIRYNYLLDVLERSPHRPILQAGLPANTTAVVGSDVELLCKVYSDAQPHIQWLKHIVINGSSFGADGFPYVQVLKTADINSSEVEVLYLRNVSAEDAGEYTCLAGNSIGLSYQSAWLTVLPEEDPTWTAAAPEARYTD

[1] = biological target: human FGFR3(IIIc)-Fc (human) (UniProt P22607); assay: as above

Substance: recombinant human FGF2 (from UniProt P09038-2) (ligand)
- binding (human FGFR4-Fc (human)): binds
- binding [1]: binds

These are yes or no findings as the source states them, for the method shown. Binding calls can cover weak binding; strength is not graded here. For some assays here: Tags and fused reporters may be left off the sequences shown.
